Source: the supplement of paper PMC10849652
The list shows a part of the results.

Chains of the proteins cited; added tags and fusions are not shown. Lines headed by an entry give the natural chain unless they say otherwise; changes in a name come on top.
UniProt Q9H7F4: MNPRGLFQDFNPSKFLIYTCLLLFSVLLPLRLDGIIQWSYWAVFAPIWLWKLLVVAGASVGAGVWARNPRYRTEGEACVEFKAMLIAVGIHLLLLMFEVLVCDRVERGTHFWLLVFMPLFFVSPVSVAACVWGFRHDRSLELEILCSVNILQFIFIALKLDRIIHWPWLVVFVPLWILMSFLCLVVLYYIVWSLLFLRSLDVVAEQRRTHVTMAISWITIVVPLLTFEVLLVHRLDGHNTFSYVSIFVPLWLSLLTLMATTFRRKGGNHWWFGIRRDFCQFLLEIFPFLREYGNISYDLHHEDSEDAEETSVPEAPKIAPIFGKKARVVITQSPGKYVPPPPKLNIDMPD
UniProt Q9Y320, whole entry, looked up: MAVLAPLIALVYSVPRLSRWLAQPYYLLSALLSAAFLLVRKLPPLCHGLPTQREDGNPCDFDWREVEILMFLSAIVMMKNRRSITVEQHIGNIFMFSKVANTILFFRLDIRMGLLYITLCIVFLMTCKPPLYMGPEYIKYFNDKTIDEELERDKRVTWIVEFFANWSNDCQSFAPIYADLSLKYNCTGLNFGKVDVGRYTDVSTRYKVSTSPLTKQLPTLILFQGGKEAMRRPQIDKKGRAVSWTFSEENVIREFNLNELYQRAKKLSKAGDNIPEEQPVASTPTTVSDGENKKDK
UniProt Q9NX61: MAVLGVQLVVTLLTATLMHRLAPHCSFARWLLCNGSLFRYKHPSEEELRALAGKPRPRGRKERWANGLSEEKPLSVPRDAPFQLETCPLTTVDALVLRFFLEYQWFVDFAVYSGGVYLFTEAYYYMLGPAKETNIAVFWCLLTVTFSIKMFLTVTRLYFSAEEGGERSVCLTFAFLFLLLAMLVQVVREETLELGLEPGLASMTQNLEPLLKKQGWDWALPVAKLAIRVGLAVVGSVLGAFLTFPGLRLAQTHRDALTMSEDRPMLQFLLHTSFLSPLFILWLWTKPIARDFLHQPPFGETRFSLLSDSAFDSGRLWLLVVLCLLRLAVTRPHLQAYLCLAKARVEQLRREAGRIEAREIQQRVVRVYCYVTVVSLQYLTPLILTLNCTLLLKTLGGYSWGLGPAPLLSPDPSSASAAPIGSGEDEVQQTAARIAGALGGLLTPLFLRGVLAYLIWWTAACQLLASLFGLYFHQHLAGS
UniProt Q8TBQ9: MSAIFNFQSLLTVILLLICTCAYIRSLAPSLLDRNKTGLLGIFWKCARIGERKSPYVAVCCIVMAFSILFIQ
UniProt Q96MH6: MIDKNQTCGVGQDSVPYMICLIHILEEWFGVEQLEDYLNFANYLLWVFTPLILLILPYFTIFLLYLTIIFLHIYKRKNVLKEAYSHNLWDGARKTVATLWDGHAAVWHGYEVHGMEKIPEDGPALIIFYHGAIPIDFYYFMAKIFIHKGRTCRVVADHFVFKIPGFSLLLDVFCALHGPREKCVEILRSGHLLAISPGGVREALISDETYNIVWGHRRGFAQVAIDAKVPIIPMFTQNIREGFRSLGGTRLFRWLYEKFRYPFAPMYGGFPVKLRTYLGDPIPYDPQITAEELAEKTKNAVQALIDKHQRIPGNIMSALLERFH
UniProt Q9NX00: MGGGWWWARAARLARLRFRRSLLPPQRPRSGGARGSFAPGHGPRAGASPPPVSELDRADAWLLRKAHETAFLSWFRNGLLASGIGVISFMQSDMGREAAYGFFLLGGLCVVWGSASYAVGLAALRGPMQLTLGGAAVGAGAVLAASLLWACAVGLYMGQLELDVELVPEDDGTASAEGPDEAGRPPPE
UniProt Q9BUB7: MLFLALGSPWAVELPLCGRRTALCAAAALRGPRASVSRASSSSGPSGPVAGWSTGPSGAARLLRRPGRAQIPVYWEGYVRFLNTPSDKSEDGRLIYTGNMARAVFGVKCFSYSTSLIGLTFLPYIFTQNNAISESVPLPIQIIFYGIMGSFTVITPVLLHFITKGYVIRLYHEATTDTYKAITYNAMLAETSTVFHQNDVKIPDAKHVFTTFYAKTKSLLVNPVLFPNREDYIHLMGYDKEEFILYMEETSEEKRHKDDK
UniProt Q9NQ34: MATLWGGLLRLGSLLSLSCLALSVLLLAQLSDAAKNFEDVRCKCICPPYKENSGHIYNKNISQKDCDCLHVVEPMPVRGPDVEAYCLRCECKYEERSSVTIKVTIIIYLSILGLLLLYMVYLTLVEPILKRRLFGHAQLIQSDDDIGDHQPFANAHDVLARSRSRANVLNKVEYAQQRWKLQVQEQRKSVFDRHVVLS
UniProt Q9P2C4: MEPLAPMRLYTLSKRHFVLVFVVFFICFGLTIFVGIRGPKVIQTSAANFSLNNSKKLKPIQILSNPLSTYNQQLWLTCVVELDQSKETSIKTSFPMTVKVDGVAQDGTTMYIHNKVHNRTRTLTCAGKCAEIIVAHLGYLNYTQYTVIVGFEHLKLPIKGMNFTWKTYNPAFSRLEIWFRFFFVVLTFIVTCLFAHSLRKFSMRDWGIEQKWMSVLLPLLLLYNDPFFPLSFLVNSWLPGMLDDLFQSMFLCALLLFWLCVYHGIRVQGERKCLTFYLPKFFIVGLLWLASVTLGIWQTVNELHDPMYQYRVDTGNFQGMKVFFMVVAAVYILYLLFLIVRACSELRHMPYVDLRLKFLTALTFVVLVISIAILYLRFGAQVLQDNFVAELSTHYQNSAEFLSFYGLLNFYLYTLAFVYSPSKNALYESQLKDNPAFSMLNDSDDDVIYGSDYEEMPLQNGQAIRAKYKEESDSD
UniProt P42166: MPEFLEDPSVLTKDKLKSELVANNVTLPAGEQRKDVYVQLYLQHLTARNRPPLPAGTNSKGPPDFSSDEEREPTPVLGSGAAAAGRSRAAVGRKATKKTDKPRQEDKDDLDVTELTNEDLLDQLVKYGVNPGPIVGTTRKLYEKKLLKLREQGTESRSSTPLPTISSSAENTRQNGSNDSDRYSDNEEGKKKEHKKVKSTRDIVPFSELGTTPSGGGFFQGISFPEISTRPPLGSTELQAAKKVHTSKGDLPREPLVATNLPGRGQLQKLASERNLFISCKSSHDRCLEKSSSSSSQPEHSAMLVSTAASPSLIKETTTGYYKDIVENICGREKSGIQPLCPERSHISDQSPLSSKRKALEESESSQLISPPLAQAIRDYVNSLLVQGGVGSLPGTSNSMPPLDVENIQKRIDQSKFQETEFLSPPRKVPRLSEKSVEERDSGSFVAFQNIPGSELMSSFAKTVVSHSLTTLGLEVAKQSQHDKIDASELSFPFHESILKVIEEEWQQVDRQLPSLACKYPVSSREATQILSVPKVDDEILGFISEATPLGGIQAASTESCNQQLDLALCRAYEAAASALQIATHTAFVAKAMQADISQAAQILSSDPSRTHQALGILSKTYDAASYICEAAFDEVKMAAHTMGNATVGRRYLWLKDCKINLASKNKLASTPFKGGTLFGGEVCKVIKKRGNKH
UniProt Q9UKI8: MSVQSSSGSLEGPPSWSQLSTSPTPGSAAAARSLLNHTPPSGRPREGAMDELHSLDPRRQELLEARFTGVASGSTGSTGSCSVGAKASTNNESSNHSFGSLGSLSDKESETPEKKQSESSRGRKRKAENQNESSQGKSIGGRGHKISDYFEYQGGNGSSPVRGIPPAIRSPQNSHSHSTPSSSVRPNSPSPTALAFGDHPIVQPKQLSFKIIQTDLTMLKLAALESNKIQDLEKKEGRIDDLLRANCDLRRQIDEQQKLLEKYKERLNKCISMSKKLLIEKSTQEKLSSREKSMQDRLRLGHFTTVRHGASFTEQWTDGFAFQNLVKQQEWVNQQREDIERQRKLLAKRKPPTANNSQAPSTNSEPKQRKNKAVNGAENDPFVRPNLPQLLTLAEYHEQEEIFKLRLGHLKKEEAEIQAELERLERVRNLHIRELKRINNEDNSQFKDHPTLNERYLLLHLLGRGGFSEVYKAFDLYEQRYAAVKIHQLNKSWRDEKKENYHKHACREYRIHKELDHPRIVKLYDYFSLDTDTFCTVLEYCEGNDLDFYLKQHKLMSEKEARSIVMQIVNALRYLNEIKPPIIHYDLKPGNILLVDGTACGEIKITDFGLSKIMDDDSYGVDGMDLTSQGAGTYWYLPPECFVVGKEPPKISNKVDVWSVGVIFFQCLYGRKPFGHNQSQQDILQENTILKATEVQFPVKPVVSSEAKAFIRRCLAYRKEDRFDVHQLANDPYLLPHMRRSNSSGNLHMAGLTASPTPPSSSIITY
UniProt Q9H1E5: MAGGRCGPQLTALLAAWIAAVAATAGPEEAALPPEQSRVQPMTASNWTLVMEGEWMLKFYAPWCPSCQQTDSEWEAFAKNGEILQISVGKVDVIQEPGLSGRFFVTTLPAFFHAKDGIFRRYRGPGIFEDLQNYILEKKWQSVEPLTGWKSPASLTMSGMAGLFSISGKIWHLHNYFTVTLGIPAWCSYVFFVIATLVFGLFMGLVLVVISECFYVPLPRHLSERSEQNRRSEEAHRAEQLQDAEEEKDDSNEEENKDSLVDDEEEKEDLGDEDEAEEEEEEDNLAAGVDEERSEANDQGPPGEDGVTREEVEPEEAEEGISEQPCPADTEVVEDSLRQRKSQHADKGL
UniProt Q6PL24: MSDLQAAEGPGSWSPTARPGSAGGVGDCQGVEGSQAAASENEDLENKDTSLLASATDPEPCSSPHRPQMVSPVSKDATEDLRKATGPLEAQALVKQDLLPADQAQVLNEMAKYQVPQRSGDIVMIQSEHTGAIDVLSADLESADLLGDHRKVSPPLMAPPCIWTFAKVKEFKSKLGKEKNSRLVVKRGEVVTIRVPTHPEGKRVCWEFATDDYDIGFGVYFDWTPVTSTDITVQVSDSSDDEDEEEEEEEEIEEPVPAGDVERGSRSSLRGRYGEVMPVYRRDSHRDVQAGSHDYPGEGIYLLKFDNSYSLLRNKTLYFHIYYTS
UniProt Q9H061: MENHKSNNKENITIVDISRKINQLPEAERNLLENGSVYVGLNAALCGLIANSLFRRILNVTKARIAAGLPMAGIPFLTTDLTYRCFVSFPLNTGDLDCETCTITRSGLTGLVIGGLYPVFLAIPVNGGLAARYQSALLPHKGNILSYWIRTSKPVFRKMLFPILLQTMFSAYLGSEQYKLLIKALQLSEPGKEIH
UniProt Q8IY95: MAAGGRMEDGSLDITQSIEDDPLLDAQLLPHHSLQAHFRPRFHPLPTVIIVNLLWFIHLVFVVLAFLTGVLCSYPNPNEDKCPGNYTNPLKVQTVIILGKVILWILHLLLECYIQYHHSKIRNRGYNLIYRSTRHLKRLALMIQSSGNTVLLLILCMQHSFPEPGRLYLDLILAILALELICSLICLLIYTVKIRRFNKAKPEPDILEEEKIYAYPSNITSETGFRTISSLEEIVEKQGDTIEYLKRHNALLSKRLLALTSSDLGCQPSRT
UniProt P82094: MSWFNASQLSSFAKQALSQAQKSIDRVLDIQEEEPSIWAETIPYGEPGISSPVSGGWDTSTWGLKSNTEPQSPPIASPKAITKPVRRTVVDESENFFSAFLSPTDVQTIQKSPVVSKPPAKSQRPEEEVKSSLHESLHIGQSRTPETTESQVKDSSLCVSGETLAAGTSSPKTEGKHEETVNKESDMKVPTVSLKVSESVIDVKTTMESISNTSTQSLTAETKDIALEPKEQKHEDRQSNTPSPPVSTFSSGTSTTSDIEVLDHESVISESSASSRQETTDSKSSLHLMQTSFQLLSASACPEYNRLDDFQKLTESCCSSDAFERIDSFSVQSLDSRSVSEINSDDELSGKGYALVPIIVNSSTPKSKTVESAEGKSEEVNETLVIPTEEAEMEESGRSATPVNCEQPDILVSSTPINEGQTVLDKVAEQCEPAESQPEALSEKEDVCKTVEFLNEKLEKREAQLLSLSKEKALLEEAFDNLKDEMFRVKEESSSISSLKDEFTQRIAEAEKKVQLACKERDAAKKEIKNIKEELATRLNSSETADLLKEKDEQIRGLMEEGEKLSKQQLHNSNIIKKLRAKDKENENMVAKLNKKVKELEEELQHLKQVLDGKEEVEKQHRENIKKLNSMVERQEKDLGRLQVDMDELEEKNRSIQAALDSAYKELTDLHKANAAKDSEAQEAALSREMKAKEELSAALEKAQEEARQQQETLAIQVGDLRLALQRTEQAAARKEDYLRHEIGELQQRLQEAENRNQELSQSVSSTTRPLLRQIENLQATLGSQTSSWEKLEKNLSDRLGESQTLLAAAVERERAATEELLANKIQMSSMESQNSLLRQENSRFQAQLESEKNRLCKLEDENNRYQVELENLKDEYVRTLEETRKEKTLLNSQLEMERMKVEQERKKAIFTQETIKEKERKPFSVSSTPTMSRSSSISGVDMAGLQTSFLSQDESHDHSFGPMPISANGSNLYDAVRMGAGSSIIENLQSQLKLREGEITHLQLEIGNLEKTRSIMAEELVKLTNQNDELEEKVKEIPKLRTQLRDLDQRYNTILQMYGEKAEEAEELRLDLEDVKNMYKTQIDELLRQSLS
UniProt Q8N511: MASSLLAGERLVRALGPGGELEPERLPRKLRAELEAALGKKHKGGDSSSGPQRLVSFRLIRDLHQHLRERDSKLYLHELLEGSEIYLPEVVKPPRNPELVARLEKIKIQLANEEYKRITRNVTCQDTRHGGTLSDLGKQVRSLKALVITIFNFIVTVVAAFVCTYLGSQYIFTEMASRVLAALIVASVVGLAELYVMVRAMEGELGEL

Compound: C1=CC=C(C=C1)[C@H](COC2=CC3=C(C=C2)NC(=O)N3)NC(=O)C4=CC=CN(C4=O)CC5=CC(=C(C=C5)F)F
Experiment: log2 fold change, soluble protein after heating vs DMSO (PISA); higher = thermal stabilisation; K562 cells, 10 uM, 30 min; active = over 0.2 and 3.5 SD of the protein, either way, in both replicates (recomputed)
Method in brief: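 For each measurement, 10 μM compound was applied for 30 min to K562 cells at 2×10^6 cells/mL. Aliquots were heated for 3 min across 48°C-58°C, pooled, and extracted in PBS with 0.5% NP-40 at 4°C; the supernatant after 21,000xg for 90 min was soluble protein. This was quantified by TMTpro 16plex LC-MS/MS with channel sums equalised, and thermal stability was reported relative to control samples from duplicates, on a log2 fold-change scale.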

Row | Target | log2 fold change
1 | TMA16 (UniProt Q96EY4) | inactive: 0.063
2 | TMEM185B (UniProt Q9H7F4) | inactive: 0.004
3 | TMX2 (UniProt Q9Y320) | inactive: -0.039
4 | TMED5 (UniProt Q9Y3A6) | inactive: -0.015
5 | TMEM161A (UniProt Q9NX61) | inactive: -0.055
6 | TMEM87A (UniProt Q8NBN3) | inactive: 0.034
7 | TMEM135 (UniProt Q86UB9) | inactive: 0.022
8 | TMEM167A (UniProt Q8TBQ9) | inactive: -0.031
9 | TMUB2 (UniProt Q71RG4) | inactive: 0.042
10 | TMEM68 (UniProt Q96MH6) | inactive: 0.031
11 | TMEM160 (UniProt Q9NX00) | inactive: 0.085
12 | TMEM70 (UniProt Q9BUB7) | inactive: -0.002
13 | TMEM126B (UniProt Q8IUX1) | inactive: -0.016
14 | TMEM9B (UniProt Q9NQ34) | inactive: 0.043
15 | TMEM181 (UniProt Q9P2C4) | inactive: -0.05
16 | TM9SF3 (UniProt Q9HD45) | inactive: 0.002
17 | TMPO (UniProt P42166) | inactive: -0.025
18 | TMPO isoform 2 (UniProt P42167) | inactive: -0.096
19 | TMUB1 (UniProt Q9BVT8) | inactive: -0.027

Row | Target | log2 fold change
20 | TMEM30A (UniProt Q9NV96) | inactive: -0.003
21 | TMBIM1 (UniProt Q969X1) | inactive: 0.024
22 | TLK1 (UniProt Q9UKI8) | inactive: 0.007
23 | TMX4 (UniProt Q9H1E5) | inactive: 0.038
24 | TMED8 (UniProt Q6PL24) | inactive: -0.005
25 | TM9SF4 (UniProt Q92544) | inactive: -0.038
26 | TMEM186 (UniProt Q96B77) | inactive: 0.045
27 | TM9SF2 (UniProt Q99805) | inactive: 0.018
28 | TMEM126A (UniProt Q9H061) | inactive: 0.056
29 | TNFRSF10A (UniProt O00220) | inactive: 0.033
30 | TMEM192 (UniProt Q8IY95) | inactive: 0.02
31 | TMEM165 (UniProt Q9HC07) | inactive: -0.03
32 | TMF1 (UniProt P82094) | inactive: 0.036
33 | TMED4 (UniProt Q7Z7H5) | inactive: 0
34 | TMEM173 (UniProt Q86WV6) | inactive: -0.035
35 | TLE4 isoform 3 (UniProt Q04727) | inactive: -0.011
36 | TMEM199 (UniProt Q8N511) | inactive: 0.062
37 | TNFAIP1 (UniProt Q13829) | inactive: -0.058

An excerpt from the list above, as a working copy:
Row | Target | log2 fold change
26 | TMEM186 (UniProt Q96B77) | inactive: 0.045
27 | TM9SF2 (UniProt Q99805) | inactive: 0.018
